Assay results from PMC10651131.
Results are given in words; binding and its absence hold for the method and conditions named. Binding seen in cells or lysates may run through a third protein. For part of these data: A result given as binding can be weak or reduced; the word gives no strength. Tags and fused reporters may be left off the sequences shown. Values belong to the molecule of their own block, whether it stands above or below them.

Columns and labels:
Test in all cases: split reporter; trimolecular fluorescence complementation (TriFC): GFP (S1 to S9) fragment coexpressed with proteins fused to the S10 or S11 GFP fragments in HEK293T cells, epifluorescence 8 hours after transfection; in some panels an untagged third protein coexpressed
[1] = molecular target: T1, megakaryoblastic leukemia 1 (MKL1), fused to the S10 or S11 GFP fragment (UniProt Q8K4J6)
T1 sequence: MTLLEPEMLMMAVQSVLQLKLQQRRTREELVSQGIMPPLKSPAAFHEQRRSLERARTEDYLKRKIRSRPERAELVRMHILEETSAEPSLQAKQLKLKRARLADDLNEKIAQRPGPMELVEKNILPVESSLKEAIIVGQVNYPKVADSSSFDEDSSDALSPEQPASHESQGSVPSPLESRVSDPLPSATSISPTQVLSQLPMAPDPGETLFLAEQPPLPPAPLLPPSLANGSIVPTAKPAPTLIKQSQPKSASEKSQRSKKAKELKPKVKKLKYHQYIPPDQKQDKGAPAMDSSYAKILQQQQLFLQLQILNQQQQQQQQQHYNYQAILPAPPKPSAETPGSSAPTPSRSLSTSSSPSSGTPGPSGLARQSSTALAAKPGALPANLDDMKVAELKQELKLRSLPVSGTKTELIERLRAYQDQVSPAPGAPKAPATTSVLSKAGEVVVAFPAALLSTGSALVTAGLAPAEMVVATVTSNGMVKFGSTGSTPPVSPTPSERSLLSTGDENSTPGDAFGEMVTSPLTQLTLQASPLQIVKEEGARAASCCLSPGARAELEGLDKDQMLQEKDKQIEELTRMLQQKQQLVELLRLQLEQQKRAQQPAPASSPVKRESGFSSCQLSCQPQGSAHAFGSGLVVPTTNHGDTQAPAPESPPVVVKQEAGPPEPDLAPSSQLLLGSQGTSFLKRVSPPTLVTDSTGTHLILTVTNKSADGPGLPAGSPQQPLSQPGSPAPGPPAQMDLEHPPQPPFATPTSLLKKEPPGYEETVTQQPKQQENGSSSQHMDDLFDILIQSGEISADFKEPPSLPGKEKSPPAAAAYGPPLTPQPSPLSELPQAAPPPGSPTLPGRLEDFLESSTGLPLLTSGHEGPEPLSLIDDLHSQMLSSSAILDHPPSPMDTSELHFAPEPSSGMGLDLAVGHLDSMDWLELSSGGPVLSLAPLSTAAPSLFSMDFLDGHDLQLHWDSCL

[2] = molecular target: T2, serum response factor (SRF), fused to the S10 or S11 GFP fragment (UniProt Q9JM73)
T2 sequence: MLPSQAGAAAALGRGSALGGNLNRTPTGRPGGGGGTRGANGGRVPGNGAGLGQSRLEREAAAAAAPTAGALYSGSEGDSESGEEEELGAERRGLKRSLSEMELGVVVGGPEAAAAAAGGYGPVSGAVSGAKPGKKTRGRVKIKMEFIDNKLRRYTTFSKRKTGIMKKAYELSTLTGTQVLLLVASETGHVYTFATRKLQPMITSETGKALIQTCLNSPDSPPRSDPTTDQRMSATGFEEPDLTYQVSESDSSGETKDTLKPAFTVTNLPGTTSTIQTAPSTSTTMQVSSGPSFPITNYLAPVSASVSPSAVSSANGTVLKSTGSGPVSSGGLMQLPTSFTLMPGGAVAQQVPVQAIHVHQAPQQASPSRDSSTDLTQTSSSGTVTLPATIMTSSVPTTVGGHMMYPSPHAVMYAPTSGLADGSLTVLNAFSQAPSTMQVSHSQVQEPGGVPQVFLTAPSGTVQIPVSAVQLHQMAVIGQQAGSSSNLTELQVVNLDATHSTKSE

[3] = molecular target: DNA binding domain of SRF, TriFC fusion

binding [1]: no binding
Molecule: TAD domain of SRF, TriFC fusion (domain or fragment)

binding [2]: no binding
Molecule: Zn-Finger domain of Bcl6, TriFC fusion (domain or fragment)

binding [3]: binds
B1: megakaryoblastic leukemia 1 (MKL1), fused to the S10 or S11 GFP fragment (protein, UniProt Q8K4J6 1-964)
chain: T1 sequence
